{"sequences": {"note": "Chains of the proteins cited; added tags and fusions are not shown.", "UniProt Q9Y572": "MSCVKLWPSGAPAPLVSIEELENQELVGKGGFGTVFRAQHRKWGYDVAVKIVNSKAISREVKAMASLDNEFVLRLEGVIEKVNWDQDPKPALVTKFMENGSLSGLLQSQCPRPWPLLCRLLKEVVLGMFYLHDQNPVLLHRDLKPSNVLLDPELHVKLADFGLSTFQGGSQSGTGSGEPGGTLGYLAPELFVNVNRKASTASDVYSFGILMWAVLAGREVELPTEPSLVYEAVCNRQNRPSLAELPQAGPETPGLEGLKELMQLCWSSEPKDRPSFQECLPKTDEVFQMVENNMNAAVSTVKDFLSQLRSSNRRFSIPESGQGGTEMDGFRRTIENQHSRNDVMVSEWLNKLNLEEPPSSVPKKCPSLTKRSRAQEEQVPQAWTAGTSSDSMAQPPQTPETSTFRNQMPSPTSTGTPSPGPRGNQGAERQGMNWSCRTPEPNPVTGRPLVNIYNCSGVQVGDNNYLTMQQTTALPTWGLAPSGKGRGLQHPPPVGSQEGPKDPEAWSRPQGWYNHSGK", "UniProt Q13546": "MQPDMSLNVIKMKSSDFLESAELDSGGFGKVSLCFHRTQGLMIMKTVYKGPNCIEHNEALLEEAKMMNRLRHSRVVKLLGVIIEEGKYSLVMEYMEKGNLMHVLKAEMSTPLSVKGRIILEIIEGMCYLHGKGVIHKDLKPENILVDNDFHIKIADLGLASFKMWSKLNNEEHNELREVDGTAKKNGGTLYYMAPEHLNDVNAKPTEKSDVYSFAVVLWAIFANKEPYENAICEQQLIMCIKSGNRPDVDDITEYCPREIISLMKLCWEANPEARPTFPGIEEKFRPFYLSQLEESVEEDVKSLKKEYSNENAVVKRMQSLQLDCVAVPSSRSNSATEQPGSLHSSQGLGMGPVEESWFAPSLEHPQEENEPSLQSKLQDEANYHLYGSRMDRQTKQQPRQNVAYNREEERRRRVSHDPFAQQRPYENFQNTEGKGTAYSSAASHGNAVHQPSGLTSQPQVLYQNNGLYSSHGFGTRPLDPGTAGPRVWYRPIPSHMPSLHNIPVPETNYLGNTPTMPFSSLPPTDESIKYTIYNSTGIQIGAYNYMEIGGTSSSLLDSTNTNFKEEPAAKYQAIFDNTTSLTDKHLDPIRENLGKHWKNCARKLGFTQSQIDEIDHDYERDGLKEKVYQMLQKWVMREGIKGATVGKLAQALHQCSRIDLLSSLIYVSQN"}, "source": "paper PMC10799905", "target": "Strep-tagged RIPK3 wild-type (WT) (UniProt Q9Y572)", "experiment": "co-IP; Strep-RIPK3 precipitated on MagStrep type3 XT beads from 1% NP-40 lysates, overnight 4 °C; RIPK3 KO HT-29 cells with Dox-induced Strep-RIPK3, TBZ 3 h, with or without HOIPIN-8 (30 µM)", "note": "No constants are given. Whether binding was seen depends on the method and setting. Binding seen in cells or lysates may run through a third protein. Some entries that bind do so weakly or less than the wild type."}
{"substance": "RIPK1 phosphorylated at S166 (from UniProt Q13546 1-671)", "values": [{"measurement": "binding", "value": "binds"}]}
